Results published in US6825013B2, “Isolation of biosynthesis genes for pseudo-oligosaccharides from Streptomyces glaucescens GLA.O, and their use” (Avantis Pharma Deutschland GmbH, priority 1996, dated 2004).
At least one structure is not confirmed: it was looked up by name or label, or the drawing left a doubt.

Tested on: Mucor miehei
Test: Biotest using Mucor miehei (plate diffusion test)
Assay type: cell-based
Conditions: paper test disks 6 mm, 37° C.

## C[C@H]1O[C@H](O[C@H]2[C@H](O)[C@@H](O)[C@@H](O[C@H]3[C@H](O)[C@@H](O)C(O)O[C@@H]3CO)O[C@@H]2CO)[C@H](O)[C@@H](O)[C@@H]1N[C@H]1C=C(CO)[C@@H](O)[C@H](O)[C@H]1O (some centres unmarked) [acarbose]
10 μl load (acarbose 1 mg/ml), starch-containing medium 5
  Inhibition halo on starch-containing medium 5: Inhibition halos appeared
Plate prepared with glucose (medium 4) instead of starch
  Inhibition halo on glucose medium 4 (control plate): no inhibition halo formed
